Data from paper PMC2824752.
No constants are given. Whether binding was seen depends on the method and setting. Binding calls can cover weak binding; strength is not graded here.

Molecular target: T1, Anaplasma phagocytophilum VirD4 (Anaplasma phagocytophilum) (UniProt Q8RPL3)
T1 sequence: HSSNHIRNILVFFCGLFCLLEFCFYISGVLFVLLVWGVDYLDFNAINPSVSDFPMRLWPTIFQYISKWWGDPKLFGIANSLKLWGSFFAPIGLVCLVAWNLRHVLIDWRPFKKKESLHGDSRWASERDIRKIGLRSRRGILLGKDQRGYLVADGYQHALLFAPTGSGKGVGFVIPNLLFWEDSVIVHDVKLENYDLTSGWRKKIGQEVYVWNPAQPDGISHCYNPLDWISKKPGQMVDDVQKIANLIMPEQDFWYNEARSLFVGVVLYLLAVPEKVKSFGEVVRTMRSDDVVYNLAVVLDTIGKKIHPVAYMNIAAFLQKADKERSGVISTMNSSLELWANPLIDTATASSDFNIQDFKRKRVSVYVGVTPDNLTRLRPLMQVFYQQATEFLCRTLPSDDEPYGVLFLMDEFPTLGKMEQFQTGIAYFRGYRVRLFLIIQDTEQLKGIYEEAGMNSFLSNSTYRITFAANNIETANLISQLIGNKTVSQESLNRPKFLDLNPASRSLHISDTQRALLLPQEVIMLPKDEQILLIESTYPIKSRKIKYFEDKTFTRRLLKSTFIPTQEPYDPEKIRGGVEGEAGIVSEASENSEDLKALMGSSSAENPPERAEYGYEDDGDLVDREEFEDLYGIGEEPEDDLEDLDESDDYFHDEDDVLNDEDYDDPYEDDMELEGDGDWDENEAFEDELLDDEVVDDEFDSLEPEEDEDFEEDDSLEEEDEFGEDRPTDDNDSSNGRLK
Assay: two-hybrid; bacterial two-hybrid (BacterioMatch II); bait pBT-VirD4, prey pTRG random genomic DNA library of A. phagocytophilum, in E. coli reporter cells; growth on minimal medium with 5 mM 3-AT for 40 h (24 h at 37°C, then 16 h at room temperature), validated on dual selective medium with 3-AT and streptomycin

Anaplasma phagocytophilum VirB11, residues 210-332 (domain or fragment)
binding: binds
